Laboratory results taken from paper PMC5824958.
These are yes or no findings as the source states them, for the method shown. In cells and extracts the contact can be indirect. Some entries that bind do so weakly or less than the wild type.

By UniProt entry, the sequences of proteins in these tests, tags left out.
UniProt P07825: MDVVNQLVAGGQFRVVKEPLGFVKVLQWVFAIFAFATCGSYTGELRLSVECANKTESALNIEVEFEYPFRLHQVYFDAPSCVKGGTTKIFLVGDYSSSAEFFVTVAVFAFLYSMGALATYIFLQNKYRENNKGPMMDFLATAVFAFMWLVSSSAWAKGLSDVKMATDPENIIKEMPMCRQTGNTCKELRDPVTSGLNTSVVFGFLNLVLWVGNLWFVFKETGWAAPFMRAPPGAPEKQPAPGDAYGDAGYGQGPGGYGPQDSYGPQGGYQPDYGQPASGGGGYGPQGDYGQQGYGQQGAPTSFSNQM

Biological target: T1, BRI2 (integral membrane protein 2B) (rat (endogenous in brain)) (UniProt Q5XIE8)
T1 sequence: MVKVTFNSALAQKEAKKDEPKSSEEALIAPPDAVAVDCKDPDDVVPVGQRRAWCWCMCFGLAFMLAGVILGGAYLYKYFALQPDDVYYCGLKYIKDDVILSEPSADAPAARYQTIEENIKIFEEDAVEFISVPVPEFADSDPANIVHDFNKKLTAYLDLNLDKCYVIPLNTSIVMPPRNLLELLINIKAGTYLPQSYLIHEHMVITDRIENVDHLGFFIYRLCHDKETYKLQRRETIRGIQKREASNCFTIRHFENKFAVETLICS
Test: co-IP; rat cerebral cortex lysate; IP with anti-BRI2, anti-PSD-95, anti-synaptophysin or anti-GAP-43 antibody on Dynabeads Protein G; SDS-PAGE and immunoblot; mock IPs with mouse or rabbit IgG

- binding: binds
Substance: Synaptophysin (from UniProt P07825 1-307)
